Measurements reported in PubChem BioAssay AID1259308 (NCATS, 2017)

Screen: 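Candidate targets for better recombinant protein yield in mammalian cells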 (primary screen)
System: human HEK293 embryonic kidney cells stably expressing firefly luciferase (HEK-CMV-Luc2-Hygro)
Reagent: single siRNA against human genes, 0.8 pmol siRNA per well
Duration: 72 h
Measurement: 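Reporter luminescence and viable-cell signal on separate replicate plates, given as percent of non-targeting control and median/MAD z-scores, plus per-cell luciferase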
Scale: total luciferase, z-score and total luciferase, % of control: higher = more reporter protein produced; luciferase per cell, z-score: higher = more reporter output per viable cell; viable cells, % of control: higher = more viable cells
Rule for the call: 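Active when the median/MAD z-score for overall luciferase is greater than 3; a gene was taken forward for validation with new siRNAs if at least two of its three siRNAs passed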
Calls: active = raised luciferase; inactive = no rise
Shown is an unselected part of about 59,000 reagents tested. About 1,510 of them (2.6%) were called active. 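Calls use total luciferase alone and ignore viability, so some active siRNAs may act by altering cell number.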

| target | PubChem SID | total luciferase, z-score | total luciferase, % of control | luciferase per cell, z-score | viable cells, % of control | Call |
| --- | --- | --- | --- | --- | --- | --- |
| ZFTA | SID160748388 | 0.424 | 90.3 | 0.675 | 84.5 | inactive |
| ZFTA | SID160748389 | -0.725 | 67.5 | -1.28 | 105 | inactive |
| ZFTA | SID160748390 | -0.107 | 79.8 | 0.279 | 82.8 | inactive |
| MINK1 | SID160739607 | -0.739 | 67.2 | -0.455 | 84.6 | inactive |
| MINK1 | SID160739608 | 0.175 | 85.4 | -0.0133 | 95.7 | inactive |
| MINK1 | SID160739609 | -1.37 | 54.6 | -1.5 | 90.5 | inactive |
| SAMD4A-AS1 | SID160772762 | 2.47 | 131 | 2.12 | 83.8 | inactive |
| SAMD4A-AS1 | SID160772763 | -0.84 | 65.2 | -0.654 | 86.5 | inactive |
| SAMD4A-AS1 | SID160772764 | 0.202 | 85.9 | -0.0203 | 96.5 | inactive |
| BATF3 | SID160724461 | 0.205 | 86 | -0.178 | 101 | inactive |
| BATF3 | SID160743734 | -0.627 | 69.4 | -0.377 | 85.7 | inactive |
| BATF3 | SID160743735 | 0.482 | 91.5 | 0.587 | 87.6 | inactive |
| IPO8 | SID160728649 | -0.347 | 75 | -0.486 | 95.2 | inactive |
| IPO8 | SID160728650 | -1.36 | 54.9 | -0.775 | 75.2 | inactive |
| IPO8 | SID160728651 | -0.236 | 77.2 | 0.013 | 86 | inactive |
| LYRM4 | SID160745666 | 0.754 | 96.9 | 0.409 | 97.2 | inactive |
| LYRM4 | SID160745667 | -1.09 | 60.2 | -0.918 | 85.7 | inactive |
| LYRM4 | SID160745668 | -0.478 | 72.4 | 1.32 | 57.1 | inactive |
| ZNF48 | SID160760719 | -1.4 | 54 | -0.489 | 68.7 | inactive |
| ZNF48 | SID160760720 | -0.617 | 69.6 | -0.0546 | 78.9 | inactive |
| ZNF48 | SID160760721 | 1.39 | 109 | 1.78 | 76.5 | inactive |
| CSTPP1 | SID160748642 | -0.891 | 64.2 | -1.65 | 111 | inactive |
| CSTPP1 | SID160748643 | -0.355 | 74.8 | -0.55 | 96.6 | inactive |
| CSTPP1 | SID160748644 | 2.05 | 123 | 1.42 | 94.3 | inactive |
| SPIN3 | SID160760375 | 0.183 | 85.5 | 0.236 | 89.8 | inactive |
| SPIN3 | SID160760376 | -0.388 | 74.2 | -0.46 | 93.6 | inactive |
| SPIN3 | SID160760377 | 0.668 | 95.2 | 0.283 | 98.7 | inactive |
| TAF1C | SID160721262 | 0.517 | 92.2 | -0.282 | 111 | inactive |
| TAF1C | SID160721263 | -1.68 | 48.5 | -1.09 | 72.2 | inactive |
| TAF1C | SID160721264 | 0.668 | 95.2 | 0.373 | 96.4 | inactive |
| RIPK3 | SID160729795 | -0.997 | 62.1 | -1.25 | 96.3 | inactive |
| RIPK3 | SID160729796 | 0.54 | 92.6 | -0.119 | 107 | inactive |
| RIPK3 | SID160729797 | 0.0593 | 83.1 | 0.408 | 83.4 | inactive |
| TCP10L | SID160757751 | -1.44 | 53.3 | -1.8 | 95.8 | inactive |
| TCP10L | SID160757752 | -0.518 | 71.6 | -0.659 | 95.2 | inactive |
| TCP10L | SID160757753 | -0.0639 | 80.6 | -0.0146 | 90.4 | inactive |
| COPB2 | SID160721862 | 3.01 | 142 | 2.33 | 85.7 | active |
| COPB2 | SID160721863 | 1.54 | 112 | 2.11 | 72.1 | inactive |
| COPB2 | SID160721864 | 1.67 | 115 | 2.09 | 74.2 | inactive |
| PAFAH1B1 | SID160778532 | 0.421 | 90.3 | 0.276 | 93.8 | inactive |
| PAFAH1B1 | SID160778533 | -0.16 | 78.7 | 0.94 | 68.7 | inactive |
| PAFAH1B1 | SID160778534 | 1.41 | 110 | 1.62 | 80.2 | inactive |
| OR10C1 | SID160768146 | 1.04 | 103 | 0.499 | 101 | inactive |
| OR10C1 | SID160768147 | 1.19 | 106 | 0.788 | 95.9 | inactive |
| OR10C1 | SID160768148 | 1.71 | 116 | 1.8 | 80.6 | inactive |
| ZNF84 | SID160719118 | 1.11 | 104 | 1.17 | 85.4 | inactive |
| ZNF84 | SID160719119 | -2.41 | 33.9 | -1.94 | 63.2 | inactive |
| ZNF84 | SID160719120 | -0.802 | 65.9 | 0.14 | 71 | inactive |
| RSL1D1 | SID160737721 | -0.706 | 67.9 | -0.783 | 93.2 | inactive |
| RSL1D1 | SID160737722 | -1.36 | 54.8 | -1.66 | 94.8 | inactive |
| RSL1D1 | SID160737723 | -0.365 | 74.6 | -0.05 | 84.5 | inactive |
| DCSTAMP | SID160750755 | -0.133 | 79.2 | -0.347 | 97 | inactive |
| DCSTAMP | SID160750756 | 0.225 | 86.4 | -0.113 | 99.4 | inactive |
| DCSTAMP | SID160750757 | -0.437 | 73.2 | 0.462 | 72.4 | inactive |
| DYRK3 | SID160720049 | -1.13 | 59.5 | 0.0534 | 65.5 | inactive |
| DYRK3 | SID160720050 | -0.0271 | 81.3 | 0.00571 | 90.8 | inactive |
| DYRK3 | SID160720051 | -0.536 | 71.2 | -1.12 | 107 | inactive |
| CNTN6 | SID160738624 | 0.954 | 101 | 0.702 | 93.7 | inactive |
| CNTN6 | SID160738625 | 0.385 | 89.5 | 0.598 | 85.5 | inactive |
| CNTN6 | SID160738626 | -0.222 | 77.5 | -0.218 | 91.7 | inactive |
| DENND6B | SID160767612 | -0.292 | 76.1 | 0.042 | 84.1 | inactive |
| DENND6B | SID160767613 | -0.337 | 75.2 | -0.193 | 88.4 | inactive |
| DENND6B | SID160767614 | -1.33 | 55.4 | -0.44 | 69.5 | inactive |
| FAM161A | SID160751779 | 0.294 | 87.7 | -0.123 | 101 | inactive |
| FAM161A | SID160751780 | 0.327 | 88.4 | -0.426 | 110 | inactive |
| FAM161A | SID160751781 | -0.311 | 75.7 | 0.12 | 82 | inactive |
| PLA2G7 | SID160719501 | 0.869 | 99.2 | 1.26 | 79.5 | inactive |
| PLA2G7 | SID160719502 | 0.538 | 92.6 | 0.3 | 95.6 | inactive |
| PLA2G7 | SID160719503 | -0.7 | 68 | -1.09 | 101 | inactive |
| NIPBL-DT | SID160769988 | 0.467 | 91.2 | 0.766 | 83.3 | inactive |
| NIPBL-DT | SID160769989 | 0.125 | 84.4 | -0.109 | 97 | inactive |
| NIPBL-DT | SID160769990 | 0.634 | 94.5 | 0.339 | 96.6 | inactive |
| TNFRSF19 | SID160743719 | -0.784 | 66.3 | -0.608 | 87 | inactive |
| TNFRSF19 | SID160743720 | -0.456 | 72.8 | -0.744 | 99 | inactive |
| TNFRSF19 | SID160743721 | 1.67 | 115 | 2.07 | 74.6 | inactive |

Individual results from the list.
Value for OR10C1 [SID160768147] in “Call”: inactive
DENND6B [SID160767612], total luciferase, z-score → -0.292
ZNF48 [SID160760719], total luciferase, % of control: 54
Under “viable cells, % of control”, MINK1 [SID160739607] is entered as 84.6
Entry of DCSTAMP [SID160750755] in “luciferase per cell, z-score”: -0.347
Entry of COPB2 [SID160721863] in “Call”: inactive
